Assay results: the M2OR odorant receptor database
Residue numbers refer to the chain shown, from its start. This is a selection; strong and weak results do not stand in their true shares. Calls are pooled over several reports, among them a noisy single-well screen. The list shows a part of the results.

Chains of the proteins cited; added tags and fusions are not shown. A line that says so, or that is headed by a name, gives the form on record, which may keep a tag or linker.
O4F17, as listed by the source: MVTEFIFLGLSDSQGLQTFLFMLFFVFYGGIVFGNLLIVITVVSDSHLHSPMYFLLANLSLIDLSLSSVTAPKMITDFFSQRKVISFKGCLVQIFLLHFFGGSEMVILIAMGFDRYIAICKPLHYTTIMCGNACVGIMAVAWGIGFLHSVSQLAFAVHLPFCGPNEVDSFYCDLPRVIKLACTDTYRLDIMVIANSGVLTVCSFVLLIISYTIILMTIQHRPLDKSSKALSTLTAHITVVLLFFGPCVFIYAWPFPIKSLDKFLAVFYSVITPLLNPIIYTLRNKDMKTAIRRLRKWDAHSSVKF
O4C46, as listed by the source: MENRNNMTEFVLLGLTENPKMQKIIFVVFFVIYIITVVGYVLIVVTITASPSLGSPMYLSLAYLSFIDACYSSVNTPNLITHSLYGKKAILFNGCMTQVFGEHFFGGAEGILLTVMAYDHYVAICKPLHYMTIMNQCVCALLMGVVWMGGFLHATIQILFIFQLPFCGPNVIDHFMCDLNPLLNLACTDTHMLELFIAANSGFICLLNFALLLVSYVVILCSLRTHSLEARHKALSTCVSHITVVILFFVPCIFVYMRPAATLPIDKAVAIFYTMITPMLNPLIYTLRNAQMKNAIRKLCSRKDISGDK
O4A15, as listed by the source: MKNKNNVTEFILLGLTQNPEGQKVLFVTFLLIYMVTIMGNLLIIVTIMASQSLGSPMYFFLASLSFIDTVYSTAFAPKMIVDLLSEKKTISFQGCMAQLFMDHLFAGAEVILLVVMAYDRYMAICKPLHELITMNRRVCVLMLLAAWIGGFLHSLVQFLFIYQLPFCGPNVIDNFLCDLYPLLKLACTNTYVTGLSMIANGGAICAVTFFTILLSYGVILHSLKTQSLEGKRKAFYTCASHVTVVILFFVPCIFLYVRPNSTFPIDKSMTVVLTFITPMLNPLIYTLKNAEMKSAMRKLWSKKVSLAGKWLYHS

Tests used:
Details in all cases: stereoisomer not certain
[1] = system: T1, O2T11
T1 sequence (whole entry): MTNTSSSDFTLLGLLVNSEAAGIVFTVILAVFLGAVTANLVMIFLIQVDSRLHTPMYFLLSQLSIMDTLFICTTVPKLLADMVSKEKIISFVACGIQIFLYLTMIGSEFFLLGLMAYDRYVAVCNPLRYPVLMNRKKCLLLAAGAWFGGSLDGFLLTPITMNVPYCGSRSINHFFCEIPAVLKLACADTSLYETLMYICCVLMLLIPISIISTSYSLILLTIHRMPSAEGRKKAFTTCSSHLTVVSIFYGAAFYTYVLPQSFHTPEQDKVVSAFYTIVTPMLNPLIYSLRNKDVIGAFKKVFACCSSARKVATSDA
Outline: (§1)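 Assay methods differ from source to source, frequently being transient luciferase assays in mammalian cell lines. For each receptor–molecule pair, the label responsive (active) applies when the original authors judged the measured signal statistically different from baseline, and non-responsive (inactive) applies otherwise.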

[2] = system: T2, O2T29
T2 sequence (whole entry): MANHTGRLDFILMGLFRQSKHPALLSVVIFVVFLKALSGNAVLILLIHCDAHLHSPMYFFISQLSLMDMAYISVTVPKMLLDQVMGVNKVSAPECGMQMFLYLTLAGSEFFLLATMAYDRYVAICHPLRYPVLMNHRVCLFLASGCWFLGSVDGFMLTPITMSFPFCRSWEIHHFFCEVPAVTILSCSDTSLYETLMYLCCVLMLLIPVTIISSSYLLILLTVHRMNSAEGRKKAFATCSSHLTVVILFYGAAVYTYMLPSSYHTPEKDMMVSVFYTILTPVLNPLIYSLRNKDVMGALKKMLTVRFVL
Outline: as §1

[3] = system: T3, O2T29; remark: listed apart in the source
T3 sequence (whole entry): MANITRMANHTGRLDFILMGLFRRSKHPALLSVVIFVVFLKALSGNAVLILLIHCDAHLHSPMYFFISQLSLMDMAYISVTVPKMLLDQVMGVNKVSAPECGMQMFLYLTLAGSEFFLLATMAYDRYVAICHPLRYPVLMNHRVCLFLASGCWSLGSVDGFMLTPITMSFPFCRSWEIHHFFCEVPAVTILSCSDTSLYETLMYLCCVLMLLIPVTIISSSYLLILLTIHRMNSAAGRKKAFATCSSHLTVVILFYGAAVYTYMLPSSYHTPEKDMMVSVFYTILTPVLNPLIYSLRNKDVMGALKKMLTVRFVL
Outline: as §1

[4] = system: T4, O2T33
T4 sequence (whole entry): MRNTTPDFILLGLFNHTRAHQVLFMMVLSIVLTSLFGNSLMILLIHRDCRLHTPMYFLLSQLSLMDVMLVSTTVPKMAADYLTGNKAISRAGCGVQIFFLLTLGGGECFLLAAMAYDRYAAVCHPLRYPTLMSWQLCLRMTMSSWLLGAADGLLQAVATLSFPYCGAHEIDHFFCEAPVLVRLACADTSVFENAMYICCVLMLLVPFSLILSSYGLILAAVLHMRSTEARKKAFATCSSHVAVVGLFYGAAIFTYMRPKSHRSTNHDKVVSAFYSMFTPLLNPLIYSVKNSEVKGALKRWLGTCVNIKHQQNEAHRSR
Outline: as §1

[5] = system: T5, O2T34
T5 sequence (whole entry): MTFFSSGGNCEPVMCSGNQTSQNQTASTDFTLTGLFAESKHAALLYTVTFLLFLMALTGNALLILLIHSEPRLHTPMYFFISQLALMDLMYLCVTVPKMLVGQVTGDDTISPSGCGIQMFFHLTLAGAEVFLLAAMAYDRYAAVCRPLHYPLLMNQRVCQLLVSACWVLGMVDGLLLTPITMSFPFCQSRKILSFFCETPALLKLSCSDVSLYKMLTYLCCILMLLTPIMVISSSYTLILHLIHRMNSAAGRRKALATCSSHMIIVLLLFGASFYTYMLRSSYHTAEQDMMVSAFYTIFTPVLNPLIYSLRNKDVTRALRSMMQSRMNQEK
Outline: as §1

[6] = system: T6, O2T35
T6 sequence (whole entry): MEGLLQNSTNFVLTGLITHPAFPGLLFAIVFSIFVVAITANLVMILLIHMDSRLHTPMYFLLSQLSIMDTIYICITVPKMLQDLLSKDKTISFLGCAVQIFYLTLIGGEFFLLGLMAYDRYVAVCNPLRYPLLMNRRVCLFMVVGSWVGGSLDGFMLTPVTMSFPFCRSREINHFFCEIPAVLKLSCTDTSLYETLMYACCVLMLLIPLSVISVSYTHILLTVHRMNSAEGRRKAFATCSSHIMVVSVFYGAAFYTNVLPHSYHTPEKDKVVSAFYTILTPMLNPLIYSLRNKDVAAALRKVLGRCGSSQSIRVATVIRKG
Outline: as §1

[7] = system: O4A15
Outline: as §1

[8] = system: T7, O4A47
T7 sequence (whole entry): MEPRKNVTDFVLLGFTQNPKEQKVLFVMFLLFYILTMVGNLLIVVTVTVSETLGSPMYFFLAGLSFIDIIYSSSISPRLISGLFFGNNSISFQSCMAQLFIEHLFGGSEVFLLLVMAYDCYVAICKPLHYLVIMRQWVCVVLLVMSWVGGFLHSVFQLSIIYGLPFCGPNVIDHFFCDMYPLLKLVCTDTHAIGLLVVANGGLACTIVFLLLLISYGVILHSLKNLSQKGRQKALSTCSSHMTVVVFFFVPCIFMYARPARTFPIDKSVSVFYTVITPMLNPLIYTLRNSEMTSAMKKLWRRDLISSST
Outline: as §1

[9] = system: O4C46
Outline: as §1

[10] = system: T8, O4F17
T8 sequence (whole entry): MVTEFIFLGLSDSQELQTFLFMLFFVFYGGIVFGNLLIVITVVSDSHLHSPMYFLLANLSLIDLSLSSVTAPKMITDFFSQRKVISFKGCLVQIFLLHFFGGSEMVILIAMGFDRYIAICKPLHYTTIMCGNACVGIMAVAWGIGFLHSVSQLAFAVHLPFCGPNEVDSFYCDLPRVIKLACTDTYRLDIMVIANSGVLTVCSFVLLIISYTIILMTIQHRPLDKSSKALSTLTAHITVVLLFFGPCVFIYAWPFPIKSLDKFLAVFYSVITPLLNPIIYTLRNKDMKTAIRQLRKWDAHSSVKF
Outline: as §1

[11] = system: T9, O4F17; remark: listed apart in the source
T9 sequence (whole entry): T8 sequence (whole entry) with E15G, Q293R
Outline: as §1

[12] = system: T10, O4F21
T10 sequence (whole entry): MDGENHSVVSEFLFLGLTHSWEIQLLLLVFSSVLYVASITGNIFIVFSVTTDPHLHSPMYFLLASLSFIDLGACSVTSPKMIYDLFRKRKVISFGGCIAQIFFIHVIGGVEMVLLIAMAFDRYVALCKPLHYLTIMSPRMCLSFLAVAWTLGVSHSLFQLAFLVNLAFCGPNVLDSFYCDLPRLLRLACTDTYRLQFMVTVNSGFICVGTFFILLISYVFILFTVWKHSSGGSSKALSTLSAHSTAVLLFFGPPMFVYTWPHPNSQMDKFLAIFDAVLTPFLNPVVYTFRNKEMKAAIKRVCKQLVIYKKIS
Outline: as §1

[13] = system: T11, O51A4
T11 sequence (whole entry): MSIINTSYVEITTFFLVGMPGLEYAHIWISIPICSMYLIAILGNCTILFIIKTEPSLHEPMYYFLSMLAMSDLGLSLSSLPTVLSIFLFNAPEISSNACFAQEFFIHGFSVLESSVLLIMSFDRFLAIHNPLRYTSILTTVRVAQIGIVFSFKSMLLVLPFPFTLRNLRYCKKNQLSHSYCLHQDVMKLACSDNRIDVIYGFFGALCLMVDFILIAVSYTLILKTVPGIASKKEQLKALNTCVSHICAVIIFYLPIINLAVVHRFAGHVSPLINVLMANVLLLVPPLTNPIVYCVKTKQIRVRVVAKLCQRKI
Outline: as §1

[14] = system: T12, O51B4
T12 sequence (whole entry): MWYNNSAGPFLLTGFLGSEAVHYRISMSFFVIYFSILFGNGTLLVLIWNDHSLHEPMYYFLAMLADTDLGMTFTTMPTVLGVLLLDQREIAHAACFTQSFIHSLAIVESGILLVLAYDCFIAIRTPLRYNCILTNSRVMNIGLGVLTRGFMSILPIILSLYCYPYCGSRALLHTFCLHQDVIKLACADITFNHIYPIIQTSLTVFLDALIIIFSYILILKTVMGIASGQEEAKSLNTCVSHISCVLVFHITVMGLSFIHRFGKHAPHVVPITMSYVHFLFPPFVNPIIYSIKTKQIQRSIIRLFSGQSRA
Outline: as §1

[15] = system: T13, O51B5
T13 sequence (whole entry): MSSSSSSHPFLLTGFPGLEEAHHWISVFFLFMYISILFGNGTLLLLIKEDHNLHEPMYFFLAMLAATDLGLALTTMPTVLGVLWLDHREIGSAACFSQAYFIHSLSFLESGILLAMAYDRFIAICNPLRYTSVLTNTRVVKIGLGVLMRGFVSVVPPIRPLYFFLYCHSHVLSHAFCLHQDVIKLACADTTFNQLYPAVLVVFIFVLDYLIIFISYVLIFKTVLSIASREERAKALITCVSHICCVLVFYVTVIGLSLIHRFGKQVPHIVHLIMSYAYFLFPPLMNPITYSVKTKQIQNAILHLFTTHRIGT
Outline: as §1

[16] = system: T14, O51B6
T14 sequence (whole entry): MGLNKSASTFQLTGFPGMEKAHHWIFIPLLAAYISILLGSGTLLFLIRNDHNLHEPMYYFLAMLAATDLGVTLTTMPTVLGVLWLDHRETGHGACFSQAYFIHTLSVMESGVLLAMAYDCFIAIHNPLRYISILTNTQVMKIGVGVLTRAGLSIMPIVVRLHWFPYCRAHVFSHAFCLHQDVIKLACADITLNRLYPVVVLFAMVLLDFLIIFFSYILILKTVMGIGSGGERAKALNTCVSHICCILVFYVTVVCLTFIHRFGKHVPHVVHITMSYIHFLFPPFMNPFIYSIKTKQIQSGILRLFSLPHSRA
Outline: as §1

[17] = system: T15, O51E1
T15 sequence (whole entry): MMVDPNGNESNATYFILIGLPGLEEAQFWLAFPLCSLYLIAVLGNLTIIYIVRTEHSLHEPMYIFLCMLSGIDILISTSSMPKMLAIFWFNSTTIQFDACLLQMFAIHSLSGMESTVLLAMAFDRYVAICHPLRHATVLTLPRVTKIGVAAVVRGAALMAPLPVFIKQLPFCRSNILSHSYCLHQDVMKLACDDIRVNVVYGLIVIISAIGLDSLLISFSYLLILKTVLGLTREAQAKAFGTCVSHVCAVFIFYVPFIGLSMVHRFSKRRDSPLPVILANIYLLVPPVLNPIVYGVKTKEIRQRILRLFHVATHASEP
Outline: as §1

[18] = system: T16, O51F1
T16 sequence (whole entry): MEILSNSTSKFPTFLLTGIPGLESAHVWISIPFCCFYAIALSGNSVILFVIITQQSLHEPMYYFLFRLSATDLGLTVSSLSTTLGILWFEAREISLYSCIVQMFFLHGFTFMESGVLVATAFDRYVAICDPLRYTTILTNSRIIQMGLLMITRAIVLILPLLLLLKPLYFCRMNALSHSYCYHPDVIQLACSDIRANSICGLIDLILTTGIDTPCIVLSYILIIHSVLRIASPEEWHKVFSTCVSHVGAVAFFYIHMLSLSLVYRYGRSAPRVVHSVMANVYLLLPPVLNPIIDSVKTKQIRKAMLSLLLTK
Outline: as §1

[19] = system: T17, O51F2
T17 sequence (whole entry): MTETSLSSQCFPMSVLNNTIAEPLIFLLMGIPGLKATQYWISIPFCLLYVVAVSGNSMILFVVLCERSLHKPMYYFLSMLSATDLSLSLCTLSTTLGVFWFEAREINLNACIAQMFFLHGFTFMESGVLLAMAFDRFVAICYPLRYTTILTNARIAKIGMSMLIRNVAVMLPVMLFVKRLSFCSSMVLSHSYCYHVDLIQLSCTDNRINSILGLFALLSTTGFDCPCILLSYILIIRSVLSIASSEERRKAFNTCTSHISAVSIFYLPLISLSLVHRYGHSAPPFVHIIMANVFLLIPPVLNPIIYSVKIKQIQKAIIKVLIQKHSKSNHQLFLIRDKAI
Outline: as §1

Measured: odorant receptor agonist call

CCCCCCOC(=O)CCC
inactive: all assays above

CCCCCC(C)=O
inactive: [1] | [3] | [5] | [7] | [9] | [10] | [13] | [17] | [18] | [19]

CC1=NC(C)SC1C (stereo not drawn)
inactive: [1] | [3] | [5] | [7] | [9] | [10] | [13] | [17] | [18] | [19]

CCCCO
active: [11]
inactive: all other assays above

CCCC(=O)O
active: [14]
inactive: all other assays above

C=CC(C)(O)CCC=C(C)C (stereo not drawn)
inactive: all assays above

CC(C)CCC(=O)O
active: [11] | [16]
inactive: all other assays above

COc1cc(C=O)ccc1O
active: [6] | [12] | [14]
inactive: all other assays above

CC(C)C=O
active: [11]
inactive: all other assays above

CCCCCOC(C)=O
active: [1] | [5] | [6] | [16]
not listed: [2]
inactive: all other assays above

CCCCCCCC=O
active: [4]
inactive: all other assays above

CC(C)=CCCC(C)=CC=O
active: [4] | [16]
inactive: all other assays above

CC(=O)OC1CC2CCC1(C)C2(C)C (stereo not drawn)
active: [11] | [16]
inactive: all other assays above
